Measured values published in the supplement of paper PMC10849652.
This is one part of the list.

Sequences of proteins named here, by UniProt entry; tags and fusion partners are left off. A change or cut given only in a name is not applied to a line headed by its entry.
UniProt Q8TDD1, whole entry, looked up: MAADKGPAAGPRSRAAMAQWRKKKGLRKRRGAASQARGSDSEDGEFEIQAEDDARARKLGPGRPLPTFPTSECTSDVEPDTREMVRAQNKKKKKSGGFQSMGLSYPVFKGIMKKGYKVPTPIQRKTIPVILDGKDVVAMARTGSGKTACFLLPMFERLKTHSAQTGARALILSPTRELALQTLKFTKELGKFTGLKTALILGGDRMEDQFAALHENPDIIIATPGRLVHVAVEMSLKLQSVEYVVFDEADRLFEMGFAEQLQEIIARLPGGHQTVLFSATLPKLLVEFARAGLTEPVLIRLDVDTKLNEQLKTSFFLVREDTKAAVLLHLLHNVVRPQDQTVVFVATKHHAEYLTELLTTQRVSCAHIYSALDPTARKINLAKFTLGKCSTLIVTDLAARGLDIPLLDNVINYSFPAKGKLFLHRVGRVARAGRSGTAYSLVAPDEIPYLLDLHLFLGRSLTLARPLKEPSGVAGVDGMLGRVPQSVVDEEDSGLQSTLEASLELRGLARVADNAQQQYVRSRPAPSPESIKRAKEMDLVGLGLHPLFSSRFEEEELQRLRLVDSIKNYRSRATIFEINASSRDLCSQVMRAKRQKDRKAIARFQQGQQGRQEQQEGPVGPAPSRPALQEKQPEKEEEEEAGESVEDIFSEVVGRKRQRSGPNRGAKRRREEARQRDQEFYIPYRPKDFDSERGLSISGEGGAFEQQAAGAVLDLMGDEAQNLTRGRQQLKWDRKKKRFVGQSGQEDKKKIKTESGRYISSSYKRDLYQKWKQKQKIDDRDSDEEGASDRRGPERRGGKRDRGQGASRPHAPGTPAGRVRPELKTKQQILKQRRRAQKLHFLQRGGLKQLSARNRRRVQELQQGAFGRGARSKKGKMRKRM
UniProt Q13838, whole entry, looked up: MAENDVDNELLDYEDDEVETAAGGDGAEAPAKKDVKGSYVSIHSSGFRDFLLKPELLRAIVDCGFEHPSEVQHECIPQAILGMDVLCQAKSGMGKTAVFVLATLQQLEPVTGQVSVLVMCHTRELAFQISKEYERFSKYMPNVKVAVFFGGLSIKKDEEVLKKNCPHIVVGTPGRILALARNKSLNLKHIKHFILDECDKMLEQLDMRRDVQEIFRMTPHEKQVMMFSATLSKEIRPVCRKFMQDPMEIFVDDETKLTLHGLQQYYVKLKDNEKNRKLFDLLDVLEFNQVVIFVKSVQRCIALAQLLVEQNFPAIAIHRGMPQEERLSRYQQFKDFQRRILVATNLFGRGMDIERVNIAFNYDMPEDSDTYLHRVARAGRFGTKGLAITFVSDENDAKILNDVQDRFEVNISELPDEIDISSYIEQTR
UniProt Q8NA75: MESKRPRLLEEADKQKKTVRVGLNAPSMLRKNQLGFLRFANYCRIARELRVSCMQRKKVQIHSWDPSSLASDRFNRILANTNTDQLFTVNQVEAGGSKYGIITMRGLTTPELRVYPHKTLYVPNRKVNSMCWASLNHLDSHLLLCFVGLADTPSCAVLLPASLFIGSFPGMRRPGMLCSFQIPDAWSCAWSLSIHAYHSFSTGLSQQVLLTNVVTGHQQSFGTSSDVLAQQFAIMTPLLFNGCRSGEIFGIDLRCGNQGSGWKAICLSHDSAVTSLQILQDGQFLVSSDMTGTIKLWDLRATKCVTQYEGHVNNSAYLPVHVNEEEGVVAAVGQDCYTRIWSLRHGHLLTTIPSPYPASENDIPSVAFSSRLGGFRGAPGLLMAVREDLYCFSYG
UniProt Q96GG9: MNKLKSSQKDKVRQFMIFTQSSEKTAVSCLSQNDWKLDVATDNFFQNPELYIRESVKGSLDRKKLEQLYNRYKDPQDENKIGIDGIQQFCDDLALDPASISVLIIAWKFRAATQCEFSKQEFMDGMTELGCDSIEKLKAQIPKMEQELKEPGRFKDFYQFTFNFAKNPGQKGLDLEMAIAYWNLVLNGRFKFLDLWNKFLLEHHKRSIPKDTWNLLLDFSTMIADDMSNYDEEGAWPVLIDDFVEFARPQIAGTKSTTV
UniProt Q8NEL9: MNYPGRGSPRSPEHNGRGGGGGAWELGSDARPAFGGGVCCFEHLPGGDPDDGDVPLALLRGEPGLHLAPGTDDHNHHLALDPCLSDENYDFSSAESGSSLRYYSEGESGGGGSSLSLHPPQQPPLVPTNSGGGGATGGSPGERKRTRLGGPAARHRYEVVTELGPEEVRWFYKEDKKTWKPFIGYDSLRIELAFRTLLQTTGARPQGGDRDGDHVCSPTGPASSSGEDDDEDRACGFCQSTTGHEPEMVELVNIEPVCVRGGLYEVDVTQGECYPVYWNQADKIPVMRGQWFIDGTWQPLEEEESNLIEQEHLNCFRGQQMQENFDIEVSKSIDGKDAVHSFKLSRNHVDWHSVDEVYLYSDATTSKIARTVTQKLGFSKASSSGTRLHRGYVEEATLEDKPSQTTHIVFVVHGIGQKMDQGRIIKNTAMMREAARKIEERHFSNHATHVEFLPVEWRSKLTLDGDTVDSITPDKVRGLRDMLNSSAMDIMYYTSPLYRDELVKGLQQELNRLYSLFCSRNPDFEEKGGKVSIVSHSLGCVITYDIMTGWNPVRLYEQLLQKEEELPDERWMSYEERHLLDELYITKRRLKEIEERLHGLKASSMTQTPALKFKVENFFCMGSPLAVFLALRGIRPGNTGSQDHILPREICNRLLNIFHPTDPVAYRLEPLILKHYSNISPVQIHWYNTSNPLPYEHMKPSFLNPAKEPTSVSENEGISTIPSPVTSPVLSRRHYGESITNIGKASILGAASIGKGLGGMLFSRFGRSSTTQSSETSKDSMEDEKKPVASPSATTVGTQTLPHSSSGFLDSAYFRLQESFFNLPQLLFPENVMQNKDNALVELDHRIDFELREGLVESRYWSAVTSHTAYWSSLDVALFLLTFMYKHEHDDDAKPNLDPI
UniProt Q9BUN8: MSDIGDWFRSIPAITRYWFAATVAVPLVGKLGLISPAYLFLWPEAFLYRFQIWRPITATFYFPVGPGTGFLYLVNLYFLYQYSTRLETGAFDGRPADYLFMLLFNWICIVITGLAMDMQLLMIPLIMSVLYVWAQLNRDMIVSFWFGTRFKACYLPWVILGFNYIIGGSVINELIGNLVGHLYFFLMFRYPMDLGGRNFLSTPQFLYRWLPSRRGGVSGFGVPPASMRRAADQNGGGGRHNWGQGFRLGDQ
UniProt Q8TEB1, whole entry, looked up: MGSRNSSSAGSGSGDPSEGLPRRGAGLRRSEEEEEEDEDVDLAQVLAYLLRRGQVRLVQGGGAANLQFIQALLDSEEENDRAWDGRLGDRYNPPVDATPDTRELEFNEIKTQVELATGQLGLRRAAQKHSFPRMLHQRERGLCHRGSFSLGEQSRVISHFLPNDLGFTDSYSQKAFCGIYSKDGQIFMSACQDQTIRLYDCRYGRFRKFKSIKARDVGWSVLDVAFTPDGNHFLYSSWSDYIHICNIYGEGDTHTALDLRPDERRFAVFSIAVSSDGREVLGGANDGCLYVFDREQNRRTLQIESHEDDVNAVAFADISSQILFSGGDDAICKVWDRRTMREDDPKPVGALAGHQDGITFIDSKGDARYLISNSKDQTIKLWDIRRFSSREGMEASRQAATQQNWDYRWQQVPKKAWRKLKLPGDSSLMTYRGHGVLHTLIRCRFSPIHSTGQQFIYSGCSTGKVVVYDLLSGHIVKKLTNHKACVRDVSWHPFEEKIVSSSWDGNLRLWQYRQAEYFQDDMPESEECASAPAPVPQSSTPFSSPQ
UniProt Q9H1C7: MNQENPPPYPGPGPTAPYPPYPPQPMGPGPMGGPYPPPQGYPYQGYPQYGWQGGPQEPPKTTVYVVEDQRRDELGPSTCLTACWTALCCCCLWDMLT
UniProt O43583: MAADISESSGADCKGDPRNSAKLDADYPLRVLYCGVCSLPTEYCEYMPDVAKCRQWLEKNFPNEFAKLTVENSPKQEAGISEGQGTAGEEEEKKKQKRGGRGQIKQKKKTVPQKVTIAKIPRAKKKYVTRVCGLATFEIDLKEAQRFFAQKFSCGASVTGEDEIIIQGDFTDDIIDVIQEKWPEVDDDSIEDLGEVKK
UniProt P35659: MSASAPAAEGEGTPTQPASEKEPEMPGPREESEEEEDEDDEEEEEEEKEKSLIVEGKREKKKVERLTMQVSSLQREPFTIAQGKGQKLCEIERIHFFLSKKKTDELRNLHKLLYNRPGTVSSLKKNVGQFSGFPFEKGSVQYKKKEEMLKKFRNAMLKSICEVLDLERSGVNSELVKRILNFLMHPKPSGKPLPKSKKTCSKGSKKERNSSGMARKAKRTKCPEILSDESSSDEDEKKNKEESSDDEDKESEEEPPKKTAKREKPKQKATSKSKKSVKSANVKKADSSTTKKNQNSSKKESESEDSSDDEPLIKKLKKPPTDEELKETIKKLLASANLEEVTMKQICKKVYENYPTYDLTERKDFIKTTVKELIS
UniProt Q9UER7, whole entry, looked up: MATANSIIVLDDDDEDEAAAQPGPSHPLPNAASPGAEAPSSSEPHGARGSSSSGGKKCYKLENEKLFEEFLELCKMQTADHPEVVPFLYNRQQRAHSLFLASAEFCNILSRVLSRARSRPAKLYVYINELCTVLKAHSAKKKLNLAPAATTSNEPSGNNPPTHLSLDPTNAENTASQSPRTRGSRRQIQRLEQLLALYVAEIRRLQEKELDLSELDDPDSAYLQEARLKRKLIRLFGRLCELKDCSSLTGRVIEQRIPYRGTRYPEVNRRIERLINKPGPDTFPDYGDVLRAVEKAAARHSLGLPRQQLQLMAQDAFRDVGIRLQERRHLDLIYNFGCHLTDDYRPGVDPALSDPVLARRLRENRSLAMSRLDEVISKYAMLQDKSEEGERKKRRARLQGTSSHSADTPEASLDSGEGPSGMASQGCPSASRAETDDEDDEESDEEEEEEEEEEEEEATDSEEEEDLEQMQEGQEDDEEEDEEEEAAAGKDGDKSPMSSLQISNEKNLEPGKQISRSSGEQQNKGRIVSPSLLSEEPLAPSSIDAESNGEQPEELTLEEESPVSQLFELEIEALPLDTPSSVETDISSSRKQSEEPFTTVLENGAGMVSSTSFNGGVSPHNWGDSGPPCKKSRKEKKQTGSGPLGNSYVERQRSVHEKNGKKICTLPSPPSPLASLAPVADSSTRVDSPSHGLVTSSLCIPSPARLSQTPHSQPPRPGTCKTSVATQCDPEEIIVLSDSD
UniProt Q9UBU7: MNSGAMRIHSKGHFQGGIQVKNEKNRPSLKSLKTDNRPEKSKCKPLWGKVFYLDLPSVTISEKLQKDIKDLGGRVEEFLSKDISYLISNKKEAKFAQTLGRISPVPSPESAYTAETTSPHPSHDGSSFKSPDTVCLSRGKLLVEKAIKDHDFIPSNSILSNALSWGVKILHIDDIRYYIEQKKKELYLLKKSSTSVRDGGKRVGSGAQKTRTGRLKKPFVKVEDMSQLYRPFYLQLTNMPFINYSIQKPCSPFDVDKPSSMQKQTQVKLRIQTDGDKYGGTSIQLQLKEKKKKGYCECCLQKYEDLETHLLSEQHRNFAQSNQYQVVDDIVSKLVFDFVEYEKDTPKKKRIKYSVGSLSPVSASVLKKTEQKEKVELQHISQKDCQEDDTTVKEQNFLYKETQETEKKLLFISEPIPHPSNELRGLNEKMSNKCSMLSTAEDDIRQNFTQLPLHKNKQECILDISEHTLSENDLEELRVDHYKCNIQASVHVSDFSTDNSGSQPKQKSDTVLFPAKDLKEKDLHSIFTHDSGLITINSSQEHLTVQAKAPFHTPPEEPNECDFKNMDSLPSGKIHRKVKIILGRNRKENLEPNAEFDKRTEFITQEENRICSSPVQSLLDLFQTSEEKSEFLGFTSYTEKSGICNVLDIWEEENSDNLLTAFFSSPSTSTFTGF
UniProt Q5T1V6: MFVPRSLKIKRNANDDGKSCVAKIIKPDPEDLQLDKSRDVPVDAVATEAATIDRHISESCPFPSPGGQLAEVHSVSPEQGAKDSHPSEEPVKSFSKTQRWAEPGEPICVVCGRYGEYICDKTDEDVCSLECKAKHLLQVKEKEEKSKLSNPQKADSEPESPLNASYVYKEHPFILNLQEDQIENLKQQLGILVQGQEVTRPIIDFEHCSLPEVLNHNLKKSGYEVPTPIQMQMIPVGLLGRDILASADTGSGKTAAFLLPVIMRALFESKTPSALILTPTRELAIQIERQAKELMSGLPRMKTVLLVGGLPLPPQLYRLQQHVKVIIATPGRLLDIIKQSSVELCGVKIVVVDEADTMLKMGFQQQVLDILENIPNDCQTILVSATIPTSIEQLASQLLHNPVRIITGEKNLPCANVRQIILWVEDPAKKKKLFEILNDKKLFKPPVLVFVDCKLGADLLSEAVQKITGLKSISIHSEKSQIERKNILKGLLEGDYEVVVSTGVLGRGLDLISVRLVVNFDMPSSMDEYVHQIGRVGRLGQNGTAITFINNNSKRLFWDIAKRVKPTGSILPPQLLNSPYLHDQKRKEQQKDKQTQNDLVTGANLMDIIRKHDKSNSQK

Legend:
Assay in all cases: log2 fold change, soluble protein after heating vs DMSO (PISA); higher = thermal stabilisation; K562 lysate, 10 uM; active = over 0.2 and 3.5 SD of the protein, either way, in both replicates (recomputed)
erlotinib = compound: C#Cc1cccc(Nc2ncnc3cc(OCCOC)c(OCCOC)cc23)c1 [erlotinib]
How it was run: (§1)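 Quantification was by TMTpro 16plex LC-MS/MS with equalised channel sums, applied to the supernatant after 21,000xg for 90 min. Samples were crude K562 extract at 1 mg/mL protein in PBS pH 7.4 with 1 mM MgCl2, treated with 10 μM compound for 30 min, heated for 3 min across 48°C-58°C, pooled and brought to 0.5% NP-40 at 4°C. Values are log-two fold changes in thermal stability relative to solvent controls, from duplicates.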

[1] = compound: C/C(=N\NC(=O)C1=CC(=CC=C1)S(=O)(=O)N2CCOCC2)/C3=C(C=CC(=C3)Cl)O
How it was run: as §1

[2] = compound: C1=CC(=CC=C1C2=NC3=C(N2)C=C(C=C3)C(=O)N)OC4=CC=C(C=C4)Cl
How it was run: as §1

[3] = compound: C1=CC2=C(C=CC(=C2)/C=C\3/C(=O)NC(=NCC4=CC=CS4)S3)N=C1
How it was run: as §1

[4] = compound: C1=CC2=NC=CN=C2C=C1/C=C/3\C(=O)NC(=O)S3
How it was run: as §1

[5] = compound: C1=CC=C(C=C1)C2=NC(=C(N2)C3=CC=NC=C3)C4=CC(=C(C=C4)Cl)O
How it was run: as §1

[6] = compound: C1=CC=C2C(=C1)C3=NNC4=CC=CC(=C43)C2=O
How it was run: as §1

[7] = compound: C1CCN(C1)C(=O)NC2=CC=CC(=C2)NC3=NC=C(C(=N3)NCCC4=CN=CN4)Br
How it was run: as §1

[8] = compound: C1CN(CCC1(CC2=CC=C(C=C2)Cl)N)C3=NC=NC4=C3C=CN4
How it was run: as §1

IRAK-1-4 Inhibitor I = compound: C1COCCN1CCN2C3=CC=CC=C3N=C2NC(=O)C4=CC(=CC=C4)[N+](=O)[O-] [IRAK-1-4 Inhibitor I]
How it was run: as §1

Measured: log2 fold change

DDX54 isoform 2 (UniProt Q8TDD1)
inactive: erlotinib -0.088 | [1] -0.36 | [2] -0.038 | [3] -0.035 | [4] -0.191 | [5] -0.001 | [6] -0.054 | [7] 0.069 | [8] 0.014 | IRAK-1-4 Inhibitor I -0.058

DDX39B isoform 2 (UniProt Q13838)
inactive: erlotinib -0.004 | [1] 0.002 | [2] -0.029 | [3] -0.034 | [4] 0.024 | [5] -0.01 | [6] 0.003 | [7] 0.006 | [8] -0.024 | IRAK-1-4 Inhibitor I -0.01

DCAF4L2 (UniProt Q8NA75)
inactive: erlotinib -0.02 | [1] -0.01 | [2] -0.012 | [3] -0.101 | [4] 0.04 | [5] 0.07 | [6] -0.039 | [7] -0.011 | [8] -0.003 | IRAK-1-4 Inhibitor I -0.058

DCUN1D1 (UniProt Q96GG9)
inactive: erlotinib -0.027 | [1] -0.01 | [2] -0.012 | [3] 0.013 | [4] 0.004 | [5] 0.005 | [6] 0.004 | [7] -0.002 | [8] 0.029 | IRAK-1-4 Inhibitor I -0.033

DDHD1 (UniProt Q8NEL9)
inactive: erlotinib -0.036 | [1] 0.02 | [2] -0.046 | [3] -0.145 | [4] 0.113 | [5] -0.01 | [6] 0.043 | [7] -0.018 | [8] 0.218 | IRAK-1-4 Inhibitor I 0.044

DERL1 (UniProt Q9BUN8)
inactive: erlotinib -0.023 | [1] -0.073 | [2] 0.031 | [3] -0.112 | [4] -0.002 | [5] -0.055 | [6] -0.111 | [7] 0.01 | [8] -0.024 | IRAK-1-4 Inhibitor I 0.022

DCAF11 (UniProt Q8TEB1)
inactive: erlotinib -0.037 | [1] -0.005 | [2] 0.032 | [3] -0.01 | [4] -0.026 | [5] 0.022 | [6] 0.016 | [7] 0.002 | [8] 0.063 | IRAK-1-4 Inhibitor I 0.01

CYSTM1 (UniProt Q9H1C7)
inactive: erlotinib 0.055 | [1] -0.032 | [2] 0.024 | [3] 0.119 | [4] 0.1 | [5] 0.023 | [6] -0.049 | [7] 0.129 | [8] -0.012 | IRAK-1-4 Inhibitor I -0.099

DCP2 (UniProt Q8IU60)
inactive: erlotinib 0.005 | [1] 0.039 | [2] -0.029 | [3] -0.064 | [4] -0.037 | [5] -0.007 | [6] 0.001 | [7] 0.025 | [8] -0.014 | IRAK-1-4 Inhibitor I -0.017

DENR (UniProt O43583)
inactive: erlotinib -0.02 | [1] -0.011 | [2] 0.019 | [3] 0.008 | [4] 0.016 | [5] 0.009 | [6] -0.014 | [7] 0.027 | [8] 0.029 | IRAK-1-4 Inhibitor I -0.018

DEK (UniProt P35659)
inactive: erlotinib 0.005 | [1] -0.01 | [2] 0.025 | [3] -0.017 | [4] -0.034 | [5] 0.023 | [6] -0.012 | [7] 0 | [8] 0.019 | IRAK-1-4 Inhibitor I 0.006

Quoted from the results shown (two entries):
CYSTM1 (UniProt Q9H1C7)
inactive: erlotinib 0.055 | [1] -0.032 | [2] 0.024 | [3] 0.119 | [4] 0.1 | [5] 0.023 | [6] -0.049 | [7] 0.129 | [8] -0.012 | IRAK-1-4 Inhibitor I -0.099

DCP2 (UniProt Q8IU60)
inactive: erlotinib 0.005 | [1] 0.039 | [2] -0.029 | [3] -0.064 | [4] -0.037 | [5] -0.007 | [6] 0.001 | [7] 0.025 | [8] -0.014 | IRAK-1-4 Inhibitor I -0.017

Next results.

DAXX (UniProt Q9UER7)
inactive: erlotinib 0.032 | [1] -0.065 | [2] 0.086 | [3] 0.012 | [4] -0.027 | [5] 0.027 | [6] -0.001 | [7] -0.018 | [8] 0.002 | IRAK-1-4 Inhibitor I -0.007

DBF4 (UniProt Q9UBU7)
active: [4] -0.342
inactive: erlotinib 0.03 | [1] 0.056 | [2] 0.005 | [3] -0.033 | [5] 0.098 | [6] -0.058 | [7] -0.068 | [8] -0.022 | IRAK-1-4 Inhibitor I 0.04

DDX59 (UniProt Q5T1V6)
inactive: erlotinib -0.022 | [1] -0.015 | [2] 0.03 | [3] -0.011 | [4] -0.038 | [5] -0.001 | [6] 0.024 | [7] -0.017 | [8] -0.061 | IRAK-1-4 Inhibitor I -0.017
